The supplement of paper PMC10849652
This is one part of the list.

The chains behind the UniProt entries cited, without tags or fusion partners. Where a name states a change or a piece, a line headed by the entry shows the natural chain unless it says otherwise.
UniProt Q9H0N5: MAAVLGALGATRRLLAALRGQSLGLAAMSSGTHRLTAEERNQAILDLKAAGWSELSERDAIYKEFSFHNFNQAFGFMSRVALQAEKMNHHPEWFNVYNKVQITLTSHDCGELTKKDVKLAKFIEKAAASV
UniProt P16118: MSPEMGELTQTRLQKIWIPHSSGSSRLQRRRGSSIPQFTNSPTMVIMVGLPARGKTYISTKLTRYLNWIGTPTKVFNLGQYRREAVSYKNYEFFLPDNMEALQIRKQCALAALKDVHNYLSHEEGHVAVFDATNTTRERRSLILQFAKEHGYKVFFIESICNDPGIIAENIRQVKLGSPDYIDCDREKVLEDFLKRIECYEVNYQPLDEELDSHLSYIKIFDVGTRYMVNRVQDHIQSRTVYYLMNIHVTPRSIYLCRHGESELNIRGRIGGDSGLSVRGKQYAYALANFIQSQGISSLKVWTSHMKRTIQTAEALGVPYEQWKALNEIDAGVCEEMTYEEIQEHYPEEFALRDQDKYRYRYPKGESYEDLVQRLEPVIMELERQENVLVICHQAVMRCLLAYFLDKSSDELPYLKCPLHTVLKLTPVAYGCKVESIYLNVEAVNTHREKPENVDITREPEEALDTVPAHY
UniProt O60925, whole entry, looked up: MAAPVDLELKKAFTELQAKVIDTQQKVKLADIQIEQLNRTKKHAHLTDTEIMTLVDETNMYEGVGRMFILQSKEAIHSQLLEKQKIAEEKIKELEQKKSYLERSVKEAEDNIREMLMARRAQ
UniProt Q15004: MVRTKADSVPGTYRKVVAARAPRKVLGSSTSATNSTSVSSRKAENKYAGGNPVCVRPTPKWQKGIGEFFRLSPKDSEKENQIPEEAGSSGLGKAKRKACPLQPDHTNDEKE
UniProt Q9H792: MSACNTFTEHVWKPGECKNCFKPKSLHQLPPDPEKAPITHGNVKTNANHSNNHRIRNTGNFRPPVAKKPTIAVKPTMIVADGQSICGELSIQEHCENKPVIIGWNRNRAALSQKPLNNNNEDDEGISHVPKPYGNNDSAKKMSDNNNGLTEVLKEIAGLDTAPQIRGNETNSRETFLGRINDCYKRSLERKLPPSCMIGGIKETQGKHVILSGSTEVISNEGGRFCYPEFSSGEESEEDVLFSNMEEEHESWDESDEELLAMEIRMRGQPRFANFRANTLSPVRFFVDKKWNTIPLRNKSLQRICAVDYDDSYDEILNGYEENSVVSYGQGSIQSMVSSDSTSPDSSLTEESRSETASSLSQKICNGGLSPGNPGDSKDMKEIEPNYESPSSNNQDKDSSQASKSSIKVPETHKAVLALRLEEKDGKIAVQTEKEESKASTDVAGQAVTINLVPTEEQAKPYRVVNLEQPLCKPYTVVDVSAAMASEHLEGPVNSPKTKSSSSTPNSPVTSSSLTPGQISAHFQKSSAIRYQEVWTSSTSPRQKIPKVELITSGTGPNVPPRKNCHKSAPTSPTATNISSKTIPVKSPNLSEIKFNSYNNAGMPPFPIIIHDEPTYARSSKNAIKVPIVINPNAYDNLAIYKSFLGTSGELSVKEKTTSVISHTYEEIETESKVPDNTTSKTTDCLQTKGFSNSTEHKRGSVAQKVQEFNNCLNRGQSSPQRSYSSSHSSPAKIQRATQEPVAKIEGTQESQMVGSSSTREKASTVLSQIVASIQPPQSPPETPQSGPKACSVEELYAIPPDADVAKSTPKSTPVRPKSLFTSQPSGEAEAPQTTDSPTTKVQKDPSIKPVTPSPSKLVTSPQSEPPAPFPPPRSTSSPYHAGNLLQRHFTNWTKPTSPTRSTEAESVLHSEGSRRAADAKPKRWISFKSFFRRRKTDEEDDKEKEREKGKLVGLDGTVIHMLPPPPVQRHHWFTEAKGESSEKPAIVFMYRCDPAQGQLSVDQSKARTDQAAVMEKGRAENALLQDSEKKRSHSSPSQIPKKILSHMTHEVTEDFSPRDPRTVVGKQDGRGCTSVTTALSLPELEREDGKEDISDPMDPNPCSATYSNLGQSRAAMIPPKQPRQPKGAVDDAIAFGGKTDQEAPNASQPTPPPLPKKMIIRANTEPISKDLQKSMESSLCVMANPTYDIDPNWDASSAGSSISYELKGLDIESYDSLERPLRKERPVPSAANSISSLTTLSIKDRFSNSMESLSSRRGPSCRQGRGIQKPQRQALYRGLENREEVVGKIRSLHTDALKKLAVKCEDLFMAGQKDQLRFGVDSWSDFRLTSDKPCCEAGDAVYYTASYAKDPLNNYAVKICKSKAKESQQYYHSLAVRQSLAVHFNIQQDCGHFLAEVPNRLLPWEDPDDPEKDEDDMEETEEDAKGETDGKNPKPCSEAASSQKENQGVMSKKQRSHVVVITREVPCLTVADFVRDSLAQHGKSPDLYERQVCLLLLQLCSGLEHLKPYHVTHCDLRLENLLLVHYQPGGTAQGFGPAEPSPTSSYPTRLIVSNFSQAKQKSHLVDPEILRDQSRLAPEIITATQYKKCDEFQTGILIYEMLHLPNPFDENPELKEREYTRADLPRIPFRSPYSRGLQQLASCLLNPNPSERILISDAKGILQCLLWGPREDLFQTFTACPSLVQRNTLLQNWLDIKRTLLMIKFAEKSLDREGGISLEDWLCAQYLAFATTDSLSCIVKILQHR
UniProt Q15118, whole entry, looked up: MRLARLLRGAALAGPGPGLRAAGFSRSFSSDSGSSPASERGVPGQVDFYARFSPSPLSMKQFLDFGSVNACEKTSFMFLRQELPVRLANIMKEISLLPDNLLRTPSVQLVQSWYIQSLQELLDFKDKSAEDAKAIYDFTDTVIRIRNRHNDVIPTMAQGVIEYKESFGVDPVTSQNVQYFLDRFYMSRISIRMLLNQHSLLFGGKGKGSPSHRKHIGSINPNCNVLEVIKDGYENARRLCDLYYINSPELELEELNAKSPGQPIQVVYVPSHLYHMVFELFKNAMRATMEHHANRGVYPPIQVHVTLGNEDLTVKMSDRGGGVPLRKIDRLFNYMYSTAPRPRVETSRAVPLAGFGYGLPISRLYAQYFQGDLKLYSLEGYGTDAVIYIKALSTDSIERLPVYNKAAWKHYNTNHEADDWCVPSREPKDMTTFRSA
UniProt Q14690: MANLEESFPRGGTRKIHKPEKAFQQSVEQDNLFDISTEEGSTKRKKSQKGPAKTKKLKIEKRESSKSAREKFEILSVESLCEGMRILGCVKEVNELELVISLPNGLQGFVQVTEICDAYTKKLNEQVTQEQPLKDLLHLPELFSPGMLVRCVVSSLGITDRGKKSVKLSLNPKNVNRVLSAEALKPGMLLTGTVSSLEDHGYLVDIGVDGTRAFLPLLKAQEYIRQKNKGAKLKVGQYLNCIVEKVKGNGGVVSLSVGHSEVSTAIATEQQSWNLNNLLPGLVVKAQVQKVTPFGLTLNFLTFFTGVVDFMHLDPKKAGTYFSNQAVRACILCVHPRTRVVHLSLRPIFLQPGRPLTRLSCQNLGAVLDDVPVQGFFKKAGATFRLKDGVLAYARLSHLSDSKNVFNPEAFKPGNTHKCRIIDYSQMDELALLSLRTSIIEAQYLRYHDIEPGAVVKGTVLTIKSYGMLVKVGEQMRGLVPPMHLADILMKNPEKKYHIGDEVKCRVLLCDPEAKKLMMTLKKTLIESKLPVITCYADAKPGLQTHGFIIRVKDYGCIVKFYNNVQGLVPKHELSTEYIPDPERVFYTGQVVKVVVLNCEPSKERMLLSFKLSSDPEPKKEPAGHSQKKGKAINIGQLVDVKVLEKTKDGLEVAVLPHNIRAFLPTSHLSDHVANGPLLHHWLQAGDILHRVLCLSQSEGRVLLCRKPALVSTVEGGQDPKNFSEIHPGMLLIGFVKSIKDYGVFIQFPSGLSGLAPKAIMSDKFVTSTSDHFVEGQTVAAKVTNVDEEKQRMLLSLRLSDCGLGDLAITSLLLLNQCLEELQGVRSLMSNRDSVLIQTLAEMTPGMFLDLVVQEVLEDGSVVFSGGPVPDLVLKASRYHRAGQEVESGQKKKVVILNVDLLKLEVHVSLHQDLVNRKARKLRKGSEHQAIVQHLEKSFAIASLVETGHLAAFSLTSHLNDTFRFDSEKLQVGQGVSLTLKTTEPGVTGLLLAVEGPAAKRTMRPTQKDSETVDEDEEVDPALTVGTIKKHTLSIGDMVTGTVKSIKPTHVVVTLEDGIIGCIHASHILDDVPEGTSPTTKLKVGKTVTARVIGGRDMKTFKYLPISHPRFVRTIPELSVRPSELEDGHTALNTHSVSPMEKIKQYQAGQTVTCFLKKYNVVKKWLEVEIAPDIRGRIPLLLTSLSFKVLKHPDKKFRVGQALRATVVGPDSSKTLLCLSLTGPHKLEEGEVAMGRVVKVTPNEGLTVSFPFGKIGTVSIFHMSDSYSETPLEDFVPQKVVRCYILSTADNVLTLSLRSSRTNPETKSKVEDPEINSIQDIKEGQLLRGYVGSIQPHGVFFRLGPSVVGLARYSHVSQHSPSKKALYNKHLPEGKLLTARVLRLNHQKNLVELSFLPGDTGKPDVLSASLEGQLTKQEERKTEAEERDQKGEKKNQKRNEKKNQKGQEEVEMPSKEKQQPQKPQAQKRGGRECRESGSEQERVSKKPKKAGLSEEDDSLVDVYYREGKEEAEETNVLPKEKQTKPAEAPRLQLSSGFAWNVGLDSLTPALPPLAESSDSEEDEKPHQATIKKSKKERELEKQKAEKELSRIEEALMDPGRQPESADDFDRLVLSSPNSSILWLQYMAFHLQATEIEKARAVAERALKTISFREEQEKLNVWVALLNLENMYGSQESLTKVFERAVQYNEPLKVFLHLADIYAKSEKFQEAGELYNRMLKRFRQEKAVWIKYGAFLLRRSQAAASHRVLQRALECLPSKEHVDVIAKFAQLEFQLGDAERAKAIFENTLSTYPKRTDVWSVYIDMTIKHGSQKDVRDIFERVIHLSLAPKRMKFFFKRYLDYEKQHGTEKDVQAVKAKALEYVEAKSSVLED
UniProt P28328: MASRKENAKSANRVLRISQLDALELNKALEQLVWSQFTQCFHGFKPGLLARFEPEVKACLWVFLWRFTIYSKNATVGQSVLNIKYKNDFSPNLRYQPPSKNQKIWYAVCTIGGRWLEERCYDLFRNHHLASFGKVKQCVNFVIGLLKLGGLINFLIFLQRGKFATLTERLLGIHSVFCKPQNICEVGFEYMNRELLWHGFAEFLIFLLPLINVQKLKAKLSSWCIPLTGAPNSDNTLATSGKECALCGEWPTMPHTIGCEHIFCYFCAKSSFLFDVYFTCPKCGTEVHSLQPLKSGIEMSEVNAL
UniProt Q29RF7: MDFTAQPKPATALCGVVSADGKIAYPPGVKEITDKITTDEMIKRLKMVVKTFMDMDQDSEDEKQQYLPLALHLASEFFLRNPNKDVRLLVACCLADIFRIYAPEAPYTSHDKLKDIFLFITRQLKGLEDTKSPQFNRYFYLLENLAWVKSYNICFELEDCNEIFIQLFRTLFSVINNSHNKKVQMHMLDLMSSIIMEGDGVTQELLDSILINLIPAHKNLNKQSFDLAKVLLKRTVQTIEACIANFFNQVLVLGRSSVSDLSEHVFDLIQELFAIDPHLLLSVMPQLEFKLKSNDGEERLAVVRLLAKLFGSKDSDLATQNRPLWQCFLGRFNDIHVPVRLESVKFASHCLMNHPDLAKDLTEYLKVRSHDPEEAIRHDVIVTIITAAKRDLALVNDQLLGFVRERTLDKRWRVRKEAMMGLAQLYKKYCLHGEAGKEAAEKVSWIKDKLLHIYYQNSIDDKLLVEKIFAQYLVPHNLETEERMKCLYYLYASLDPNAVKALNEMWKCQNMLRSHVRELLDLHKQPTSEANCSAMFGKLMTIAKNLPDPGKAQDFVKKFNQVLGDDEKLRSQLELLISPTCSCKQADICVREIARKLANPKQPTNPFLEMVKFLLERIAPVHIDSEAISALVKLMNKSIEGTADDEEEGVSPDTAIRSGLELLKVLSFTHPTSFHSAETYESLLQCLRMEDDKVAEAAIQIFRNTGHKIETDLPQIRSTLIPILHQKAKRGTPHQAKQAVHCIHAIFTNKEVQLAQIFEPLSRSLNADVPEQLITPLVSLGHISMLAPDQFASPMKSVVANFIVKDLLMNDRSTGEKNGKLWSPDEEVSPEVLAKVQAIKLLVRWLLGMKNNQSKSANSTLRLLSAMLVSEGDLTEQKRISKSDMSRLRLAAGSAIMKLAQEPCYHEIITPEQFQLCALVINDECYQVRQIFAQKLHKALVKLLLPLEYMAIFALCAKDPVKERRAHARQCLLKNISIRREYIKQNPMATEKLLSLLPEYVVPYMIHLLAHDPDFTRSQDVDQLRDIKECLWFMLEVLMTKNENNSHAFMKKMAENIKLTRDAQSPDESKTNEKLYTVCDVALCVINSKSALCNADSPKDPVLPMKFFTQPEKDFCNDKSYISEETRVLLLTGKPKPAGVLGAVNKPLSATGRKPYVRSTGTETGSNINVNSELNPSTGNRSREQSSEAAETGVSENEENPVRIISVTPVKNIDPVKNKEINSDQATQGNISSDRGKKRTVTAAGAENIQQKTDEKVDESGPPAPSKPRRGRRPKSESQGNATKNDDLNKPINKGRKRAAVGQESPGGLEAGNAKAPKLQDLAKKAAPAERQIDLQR

Key:
Assay in all cases: log2 fold change, soluble protein after heating vs DMSO (PISA); higher = thermal stabilisation; K562 lysate, 10 uM; active = over 0.2 and 3.5 SD of the protein, either way, in both replicates (recomputed)
[1] = compound: CN1CC[C@H](c2c(O)cc(O)c3c(=O)cc(-c4ccccc4Cl)oc23)[C@H](O)C1 [alvocidib]
Outline: (§1)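 Thermal stability, expressed as log-two fold change relative to solvent controls, is given from duplicates. Crude K562 extract in PBS pH 7.4 with 1 mM MgCl2, at 1 mg/mL protein, was treated with 10 μM compound for 30 min and heated in aliquots for 3 min across 48°C-58°C. After pooling, adjustment to 0.5% NP-40 at 4°C and centrifugation at 21,000xg for 90 min, supernatant protein was measured by TMTpro 16plex LC-MS/MS with channel sums equalised.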

[2] = compound: CN1CCc2c(c3ccccc3n2Cc2ccc(C(=O)NO)cc2)C1 [Tubastatin A]
Outline: as §1

[3] = compound: CNC(=O)C1=CC=CC=C1NC2=NC(=NC=C2Cl)NC3=C(C=C(C=C3)N4CCOCC4)OC
Outline: as §1

[4] = compound: CNC(=O)c1ccc(Nc2ncc(C(F)(F)F)c(NCc3nccnc3N(C)S(C)(=O)=O)n2)cc1 [defactinib]
Outline: as §1

[5] = compound: CNc1nc(-c2ccc3c(N)n[nH]c3c2)cc(N2C[C@@H](C(=O)NC3CCCCC3)CC[C@H]2C)n1
Outline: as §1

[6] = compound: COC(=O)N[C@@H](C)CNc1nccc(-c2cn(C(C)C)nc2-c2cc(Cl)cc(NS(C)(=O)=O)c2F)n1 [encorafenib]
Outline: as §1

[7] = compound: COC(=O)[C@H](CCSC)NC(=O)C1=C(C=C(C=C1)NC[C@H](CS)N)C2=CC=CC=C2
Outline: as §1

[8] = compound: COc1cc(Nc2ncc3c(n2)-c2ccc(Cl)cc2C(c2c(F)cccc2OC)=NC3)ccc1C(=O)O [alisertib]
Outline: as §1

[9] = compound: COc1cc2nc(-c3cc(F)ccc3O)nc(N[C@@H]3CNC[C@H]3C(C)(C)O)c2cc1OC
Outline: as §1

[10] = compound: COc1cc2ncnc(Nc3ccc(F)c(Cl)c3)c2cc1OCCCN1CCOCC1 [gefitinib]
Outline: as §1

[11] = compound: CS(=O)(=O)CCNCc1ccc(-c2ccc3ncnc(Nc4ccc(OCc5cccc(F)c5)c(Cl)c4)c3c2)o1 [lapatinib]
Outline: as §1

[12] = compound: CS(=O)(=O)N1CCN(Cc2cc3nc(-c4cccc5[nH]ncc45)nc(N4CCOCC4)c3s2)CC1 [pictilisib]
Outline: as §1

[13] = compound: C[C@@H](Oc1cc(-c2cnn(C3CCNCC3)c2)cnc1N)c1c(Cl)ccc(F)c1Cl [crizotinib]
Outline: as §1

[14] = compound: C[C@H](C1=CC=C(C=C1)C(=O)NC2=C3C=CNC3=NC=C2)N
Outline: as §1

[15] = compound: C[C@H](Nc1ncnc2nc[nH]c12)c1cc2cccc(Cl)c2c(=O)n1-c1ccccc1 [duvelisib]
Outline: as §1

[16] = compound: Cc1cc(Nc2cc(CN3CCOCC3)c3nc(C)c(Cc4ccc(Cl)cc4F)n3n2)n[nH]1 [gandotinib]
Outline: as §1

[17] = compound: Cc1cc(Nc2cc(N3CCN(C)CC3)nc(Sc3ccc(NC(=O)C4CC4)cc3)n2)n[nH]1 [tozasertib]
Outline: as §1

[18] = compound: Cc1ccc(-n2nc(C(C)(C)C)cc2NC(=O)Nc2ccc(OCCN3CCOCC3)c3ccccc23)cc1 [doramapimod]
Outline: as §1

[19] = compound: Cc1ccc(NC(=O)c2ccc(CN3CC[C@H](N(C)C)C3)c(C(F)(F)F)c2)cc1Nc1nccc(-c2cncnc2)n1 [bafetinib]
Outline: as §1

[20] = compound: Cc1cccc(CC(=O)N2CCc3c2ccc(-c2cn(C)c4ncnc(N)c24)c3F)n1
Outline: as §1

| Target | log2 fold change [1] | log2 fold change [2] | log2 fold change [3] | log2 fold change [4] | log2 fold change [5] | log2 fold change [6] | log2 fold change [7] | log2 fold change [8] | log2 fold change [9] | log2 fold change [10] | log2 fold change [11] | log2 fold change [12] | log2 fold change [13] | log2 fold change [14] | log2 fold change [15] | log2 fold change [16] | log2 fold change [17] | log2 fold change [18] | log2 fold change [19] | log2 fold change [20] |
| --- | --- | --- | --- | --- | --- | --- | --- | --- | --- | --- | --- | --- | --- | --- | --- | --- | --- | --- | --- | --- |
| PEPD (UniProt P12955) | inactive: 0.015 | inactive: 0.039 | inactive: 0.053 | inactive: -0.015 | inactive: 0.015 | inactive: 0.009 | inactive: -0.07 | inactive: 0.03 | inactive: -0.017 | inactive: -0.074 | inactive: -0.004 | inactive: -0.051 | inactive: -0.005 | inactive: -0.024 | inactive: -0.044 | inactive: 0.032 | inactive: -0.006 | inactive: 0.001 | inactive: -0.007 | inactive: -0.005 |
| PCBD2 (UniProt Q9H0N5) | inactive: -0.124 | inactive: 0.012 | inactive: 0.01 | inactive: -0.045 | inactive: -0.059 | inactive: -0.008 | inactive: -0.039 | inactive: 0.058 | inactive: 0.031 | inactive: 0.071 | inactive: -0.014 | inactive: -0.009 | inactive: -0.051 | active: -0.228 | inactive: 0.028 | inactive: 0.141 | inactive: 0.031 | inactive: 0.008 | inactive: -0.063 | inactive: 0.096 |
| PFKFB1 (UniProt P16118) | inactive: 0.054 | inactive: -0.026 | inactive: 0.097 | inactive: 0.005 | inactive: 0.149 | inactive: 0.094 | inactive: -0.052 | – | inactive: 0.099 | – | inactive: -0.173 | inactive: -0.042 | – | inactive: 0.069 | inactive: -0.038 | inactive: -0.049 | inactive: 0.125 | – | inactive: -0.149 | inactive: 0.031 |
| PFDN1 (UniProt O60925) | inactive: 0.116 | inactive: 0.086 | inactive: 0.055 | inactive: 0.054 | inactive: -0.023 | inactive: -0.039 | inactive: -0.019 | inactive: 0.059 | inactive: -0.044 | inactive: -0.146 | inactive: 0.088 | inactive: -0.039 | inactive: 0.056 | inactive: 0.12 | inactive: 0.006 | inactive: -0.121 | inactive: 0.032 | inactive: -0.013 | inactive: -0.034 | inactive: -0.132 |
| PDE3B (UniProt Q13370) | inactive: 0.158 | inactive: -0.01 | – | – | inactive: -0.108 | – | – | – | – | – | – | – | – | inactive: 0.091 | inactive: 0.101 | inactive: 0.139 | – | – | – | inactive: -0.019 |
| PBLD (UniProt P30039) | inactive: 0.038 | inactive: 0.197 | inactive: -0.042 | inactive: -0.047 | inactive: 0.176 | inactive: 0.04 | inactive: 0.118 | inactive: 0.018 | inactive: -0.012 | inactive: -0.006 | inactive: -0.084 | inactive: -0.1 | inactive: -0.215 | inactive: -0.114 | inactive: -0.156 | inactive: -0.105 | inactive: 0.069 | inactive: 0.054 | inactive: 0.091 | inactive: 0.128 |
| PCLAF (UniProt Q15004) | inactive: -0.005 | inactive: 0.041 | inactive: 0.017 | inactive: 0.014 | inactive: 0.056 | inactive: 0.005 | inactive: -0.077 | inactive: -0.097 | – | inactive: 0.001 | – | inactive: 0.015 | inactive: 0.024 | inactive: -0.079 | inactive: 0.037 | inactive: 0.108 | inactive: -0.029 | inactive: 0.009 | inactive: -0.01 | inactive: 0.05 |
| PDF (UniProt Q9HBH1) | inactive: 0.01 | inactive: -0.065 | inactive: 0.083 | inactive: 0.059 | inactive: 0.011 | inactive: 0.028 | active: -0.293 | inactive: 0.048 | inactive: -0.181 | inactive: -0.064 | inactive: 0.027 | inactive: -0.016 | inactive: -0.067 | inactive: 0.018 | inactive: -0.076 | inactive: -0.019 | inactive: 0.029 | inactive: 0.027 | inactive: -0.162 | inactive: 0.025 |
| PCGF6 (UniProt Q9BYE7) | inactive: 0.022 | inactive: -0.019 | inactive: 0.045 | inactive: 0.085 | inactive: 0.047 | – | – | inactive: -0.068 | inactive: -0.036 | inactive: 0.127 | inactive: 0.237 | – | inactive: -0.08 | inactive: 0.108 | inactive: -0.011 | inactive: -0.027 | – | inactive: -0.004 | – | inactive: -0.051 |
| PEAK1 (UniProt Q9H792) | inactive: -0.067 | inactive: -0.139 | inactive: 0.164 | inactive: -0.116 | inactive: 0.022 | – | – | inactive: 0.062 | – | inactive: -0.083 | – | inactive: 0.048 | inactive: 0.059 | inactive: 0.111 | inactive: -0.111 | inactive: -0.114 | – | inactive: -0.049 | inactive: -0.03 | inactive: 0.001 |
| PDE4A (UniProt P27815) | inactive: -0.023 | inactive: -0.007 | inactive: 0.023 | inactive: -0.264 | inactive: -0.055 | inactive: -0.03 | inactive: -0.04 | inactive: -0.035 | – | inactive: 0.05 | – | inactive: -0.083 | inactive: 0.022 | inactive: -0.177 | inactive: 0.16 | inactive: 0.055 | inactive: -0.021 | inactive: 0.035 | inactive: -0.073 | inactive: -0.018 |
| PDK1 (UniProt Q15118) | inactive: 0.062 | inactive: -0.153 | inactive: 0.024 | inactive: -0.151 | inactive: -0.084 | inactive: 0.011 | inactive: 0.012 | – | inactive: -0.051 | – | inactive: 0.094 | inactive: -0.141 | inactive: -0.122 | inactive: -0.004 | inactive: -0.025 | inactive: -0.124 | inactive: 0.353 | inactive: 0.04 | inactive: -0.155 | inactive: 0.071 |
| PARP2 (UniProt Q9UGN5) | inactive: -0.023 | inactive: -0.066 | inactive: -0.03 | inactive: 0.08 | inactive: -0.039 | inactive: 0.067 | inactive: 0.042 | inactive: 0.008 | inactive: -0.008 | inactive: -0.01 | inactive: -0.063 | inactive: -0.006 | inactive: -0.003 | inactive: -0.047 | inactive: 0.091 | inactive: -0.059 | inactive: 0.026 | inactive: 0.1 | inactive: -0.054 | inactive: -0.033 |
| PDCD11 (UniProt Q14690) | inactive: 0.011 | inactive: 0.002 | inactive: -0.018 | inactive: -0.133 | inactive: 0.018 | inactive: 0.085 | inactive: 0.077 | inactive: 0.049 | inactive: -0.007 | inactive: 0.064 | inactive: -0.039 | inactive: -0.097 | inactive: -0.114 | inactive: 0.026 | inactive: 0.027 | inactive: -0.038 | inactive: -0.003 | inactive: 0.007 | inactive: -0.008 | inactive: 0.042 |
| PEX2 (UniProt P28328) | inactive: -0.041 | inactive: -0.104 | inactive: 0.172 | inactive: 0.181 | inactive: 0.118 | – | – | inactive: 0.115 | inactive: 0.116 | inactive: -0.372 | inactive: -0.081 | inactive: 0.035 | inactive: -0.041 | inactive: -0.04 | inactive: -0.031 | inactive: 0.096 | – | inactive: -0.151 | inactive: -0.218 | inactive: 0.149 |
| PDIA6 isoform 2 (UniProt Q15084) | inactive: 0.019 | inactive: 0.094 | inactive: -0.029 | inactive: -0.005 | inactive: -0.012 | inactive: -0.023 | inactive: -0.055 | inactive: 0.003 | inactive: -0.001 | inactive: 0.021 | inactive: -0.009 | inactive: 0.033 | inactive: 0.001 | inactive: 0.054 | inactive: 0.024 | inactive: -0.016 | inactive: 0.02 | inactive: -0.017 | inactive: 0.045 | inactive: -0.012 |
| PBRM1 (UniProt Q86U86) | inactive: -0.165 | inactive: 0.007 | inactive: -0.044 | – | inactive: 0.03 | inactive: 0.036 | inactive: 0.09 | inactive: 0.051 | inactive: -0.004 | inactive: -0.085 | inactive: 0.014 | inactive: 0.02 | inactive: -0.027 | inactive: 0.12 | inactive: 0.046 | inactive: -0.083 | inactive: -0.061 | inactive: 0.138 | inactive: -0.054 | inactive: -0.02 |
| PDS5A (UniProt Q29RF7) | inactive: 0.023 | inactive: -0.21 | inactive: 0.016 | inactive: 0.016 | inactive: -0.054 | inactive: 0.048 | inactive: -0.003 | inactive: 0.014 | inactive: 0 | inactive: -0.005 | inactive: -0.024 | inactive: -0.053 | inactive: -0.123 | inactive: -0.09 | inactive: 0.023 | inactive: -0.127 | inactive: 0.008 | inactive: 0.006 | inactive: -0.075 | inactive: 0.125 |

Reformatted tab-delimited: part of the list above
Target	log2 fold change [1]	log2 fold change [2]	log2 fold change [3]	log2 fold change [4]	log2 fold change [5]	log2 fold change [6]	log2 fold change [7]	log2 fold change [8]	log2 fold change [9]	log2 fold change [10]	log2 fold change [11]	log2 fold change [12]	log2 fold change [13]	log2 fold change [14]	log2 fold change [15]	log2 fold change [16]	log2 fold change [17]	log2 fold change [18]	log2 fold change [19]	log2 fold change [20]
PCGF6 (UniProt Q9BYE7)	inactive: 0.022	inactive: -0.019	inactive: 0.045	inactive: 0.085	inactive: 0.047	–	–	inactive: -0.068	inactive: -0.036	inactive: 0.127	inactive: 0.237	–	inactive: -0.08	inactive: 0.108	inactive: -0.011	inactive: -0.027	–	inactive: -0.004	–	inactive: -0.051
PARP2 (UniProt Q9UGN5)	inactive: -0.023	inactive: -0.066	inactive: -0.03	inactive: 0.08	inactive: -0.039	inactive: 0.067	inactive: 0.042	inactive: 0.008	inactive: -0.008	inactive: -0.01	inactive: -0.063	inactive: -0.006	inactive: -0.003	inactive: -0.047	inactive: 0.091	inactive: -0.059	inactive: 0.026	inactive: 0.1	inactive: -0.054	inactive: -0.033
PBRM1 (UniProt Q86U86)	inactive: -0.165	inactive: 0.007	inactive: -0.044	–	inactive: 0.03	inactive: 0.036	inactive: 0.09	inactive: 0.051	inactive: -0.004	inactive: -0.085	inactive: 0.014	inactive: 0.02	inactive: -0.027	inactive: 0.12	inactive: 0.046	inactive: -0.083	inactive: -0.061	inactive: 0.138	inactive: -0.054	inactive: -0.02
PDS5A (UniProt Q29RF7)	inactive: 0.023	inactive: -0.21	inactive: 0.016	inactive: 0.016	inactive: -0.054	inactive: 0.048	inactive: -0.003	inactive: 0.014	inactive: 0	inactive: -0.005	inactive: -0.024	inactive: -0.053	inactive: -0.123	inactive: -0.09	inactive: 0.023	inactive: -0.127	inactive: 0.008	inactive: 0.006	inactive: -0.075	inactive: 0.125
